From patent US8298543B2, “Identification and application of antibiotic synergy” (priority 2005, dated 2012)
Some entries share one result that the patent states for a list of compounds. Some compounds share one range, which may span the group rather than tell each member.

System: B. anthracis murB-2 antisense strain

Compound | fold lower concentrations of the antibiotic to which cells are sensitive, relative to un-induced condition
CO/N=C(\C(=O)N[C@@H]1C(=O)N2C(C(=O)[O-])=C(C[N+]3(C)CCCC3)CS[C@H]12)c1csc(N)n1 [cefepime] | 100-600 fold
CO/N=C(\C(=O)N[C@@H]1C(=O)N2C(C(=O)O)=C(COC(C)=O)CS[C@H]12)c1csc(N)n1 [cefotaxime] | 100-600 fold
CO[C@@]1(NC(=O)Cc2cccs2)C(=O)N2C(C(=O)O)=C(COC(N)=O)CS[C@@H]21 [cefoxitin] | 100-600 fold
CO/N=C(\C(=O)N[C@@H]1C(=O)N2C(C(=O)O)=C(CSc3nc(=O)c(=O)[nH]n3C)CS[C@H]12)c1csc(N)n1 [ceftriaxone] | 100-600 fold
